# The list is a part of this screen's results and no random one: it is rich in T/C values a quarter to a half above the control, in often repeated tests (any T/C) and in doses without a T/C. Other doses and runs of a compound stand elsewhere. T/C: endpoint of the treated group in % of that of the vehicle group. Where survival is the endpoint, this PubChem deposit counts one and a half times the control or more as active, and values a quarter to a half above the control carry no call in these data; other NCI protocols may use other cut-offs. Schedule codes are those of the source, taken here to give the interval after Q, in days (D) or hours (H), and the number of doses after X. Some schedules carry Z or #; the key to these is not given. Some doses were run more than once; the results are listed from low to high. Some T/C values are followed by the survivors on the day toxicity was checked, most often the fifth; without a count, all were alive then. Square brackets hold non-standard residues; d marks the D form. Peptide text beside a SMILES is read from it. Ac5c = NC1(C(=O)O)CCCC1
# System: BDF1 mice, L1210 leukemia sc
# Assay: NCI In Vivo Anticancer Drug Screen. Data for tumor model L1210 Leukemia (subcutaneous) in B6D2F1 (BDF1) mice
# Details: higher T/C = longer survival
# How it was run: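 Antitumor activity is assessed in mice with transplanted tumors by comparing the treated group (T) with the vehicle control group (C).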
# [1] = T/C endpoint: median survival time, dose: 23.0 mg/kg/injection, schedule: Q01DX Z (sc), vehicle: methylcellulose (MC)
# [2] = T/C endpoint: median survival time, dose: 39.0 mg/kg/injection, schedule: Q01DX Z (sc), vehicle: methylcellulose (MC)
# [3] = T/C endpoint: median survival time, dose: 65.0 mg/kg/injection, schedule: Q01DX Z (sc), vehicle: methylcellulose (MC)
# [4] = T/C endpoint: median survival time, dose: 108.0 mg/kg/injection, schedule: Q01DX Z (sc), vehicle: methylcellulose (MC)
smiles,measurement,setting,value
C[C@@H](CN1CC(=O)NC(=O)C1)N1CC(=O)NC(=O)C1,T/C,"T/C endpoint: median survival time, dose: 16.0 mg/kg/injection, schedule: Q01DX009 (ip), vehicle: water",125 % of control
same,T/C,"T/C endpoint: median survival time, dose: 32.0 mg/kg/injection, schedule: Q01DX009 (ip), vehicle: water, evaluated on day 21",128 % of control
same,T/C,"T/C endpoint: median survival time, dose: 32.0 mg/kg/injection, schedule: Q01DX009 (ip), vehicle: water, evaluated on day 30",130 % of control
same,T/C,"T/C endpoint: median survival time, dose: 64.0 mg/kg/injection, schedule: Q01DX009 (ip), vehicle: water, evaluated on day 20",126 % of control
same,T/C,"T/C endpoint: median survival time, dose: 64.0 mg/kg/injection, schedule: Q01DX009 (ip), vehicle: water, evaluated on day 21",144 % of control
same,T/C,"T/C endpoint: median survival time, dose: 64.0 mg/kg/injection, schedule: Q01DX009 (ip), vehicle: water, evaluated on day 30",138 % of control
same,T/C,"T/C endpoint: median survival time, dose: 128.0 mg/kg/injection, schedule: Q01DX009 (ip), vehicle: water",144 % of control
same,T/C,"T/C endpoint: median survival time, dose: 256.0 mg/kg/injection, schedule: Q01DX009 (ip), vehicle: water, evaluated on day 21",149 % of control [9 of 10 alive]
same,T/C,"T/C endpoint: median survival time, dose: 256.0 mg/kg/injection, schedule: Q01DX009 (ip), vehicle: water, evaluated on day 30",125 % of control
S=c1nc[nH]c2c1ncn2C1CCCO1 (stereo not drawn),T/C,[1],130 % of control
same,T/C,[2],130 % of control
same,T/C,[3],130 % of control
CCCn1cnc2c(=S)nc(N)[nH]c21,T/C,"T/C endpoint: median survival time, dose: 14.0 mg/kg/injection, schedule: Q01DX Z (sc), vehicle: methylcellulose (MC)",127 % of control
same,T/C,[1],144 % of control
same,T/C,[2],133 % of control
CS(=O)(=O)OCCCCCCCCCOS(C)(=O)=O,T/C,"T/C endpoint: median survival time, dose: 130.0 mg/kg/injection, schedule: Q01DX Z (sc), vehicle: methylcellulose (MC)",140 % of control [9 of 10 alive]
same,T/C,"T/C endpoint: median survival time, dose: 360.0 mg/kg/injection, schedule: Q01DX Z (sc), vehicle: methylcellulose (MC)",140 % of control
same,T/C,"T/C endpoint: median survival time, dose: 600.0 mg/kg/injection, schedule: Q01DX Z (sc), vehicle: methylcellulose (MC)",130 % of control [8 of 10 alive]
CN=C(NC)c1ccc(NC(=O)Nc2ccc(NC(=O)Nc3ccc(C(=NC)NC)cc3)cc2)cc1,T/C,"T/C endpoint: median survival time, dose: 23.0 mg/kg/injection, schedule: Q01DX Z (sc), vehicle: saline",140 % of control
c1ccc(CNc2ncnc3[nH]ncc23)cc1,T/C,"T/C endpoint: median survival time, dose: 38.9 mg/kg/injection, schedule: Q01DX Z (sc), vehicle: methylcellulose (MC)",140 % of control
NCC(=O)NC1(C(=O)O)CCCC1 (H-Gly-[Ac5c]-OH),T/C,"T/C endpoint: median survival time, dose: 432.0 mg/kg/injection, schedule: Q01DX Z (sc), vehicle: water",142 % of control
same,T/C,"T/C endpoint: median survival time, dose: 720.0 mg/kg/injection, schedule: Q01DX Z (sc), vehicle: water",136 % of control
OC(CBr)C(O)C(O)C(O)CBr (stereo not drawn),T/C,"T/C endpoint: median survival time, dose: 300.0 mg/kg/injection, schedule: Q01DX009 (sc), vehicle: other",131 % of control
same,T/C,"T/C endpoint: median survival time, dose: 300.0 mg/kg/injection, schedule: Q01DX009 (sc), vehicle: steroid suspending solution",130 % of control
same,T/C,"T/C endpoint: median survival time, dose: 300.0 mg/kg/injection, schedule: Q01DX015 (sc), vehicle: other",133 % of control
same,T/C,"T/C endpoint: median survival time, dose: 300.0 mg/kg/injection, schedule: Q01DX015 (sc), vehicle: steroid suspending solution",131 % of control
same,T/C,"T/C endpoint: median survival time, dose: 500.0 mg/kg/injection, schedule: Q01DX009 (ip), vehicle: steroid suspending solution",133 % of control
same,T/C,"T/C endpoint: median survival time, dose: 500.0 mg/kg/injection, schedule: Q01DX009 (sc), vehicle: other",138 % of control
same,T/C,"T/C endpoint: median survival time, dose: 500.0 mg/kg/injection, schedule: Q01DX009 (sc), vehicle: steroid suspending solution",135 % of control
same,T/C,"T/C endpoint: median survival time, dose: 500.0 mg/kg/injection, schedule: Q01DX015 (sc), vehicle: other",125 % of control
same,T/C,"T/C endpoint: median survival time, dose: 500.0 mg/kg/injection, schedule: Q01DX015 (sc), vehicle: steroid suspending solution",126 % of control
same,T/C,"T/C endpoint: median survival time, dose: 800.0 mg/kg/injection, schedule: Q01DX015 (sc), vehicle: other",141 % of control
same,T/C,"T/C endpoint: median survival time, dose: 800.0 mg/kg/injection, schedule: Q01DX015 (sc), vehicle: steroid suspending solution",142 % of control
same,T/C,"T/C endpoint: median survival time, dose: 833.0 mg/kg/injection, schedule: Q01DX009 (sc), vehicle: other",130 % of control
same,T/C,"T/C endpoint: median survival time, dose: 833.0 mg/kg/injection, schedule: Q01DX009 (sc), vehicle: steroid suspending solution",130 % of control
Nc1nncs1,T/C,"T/C endpoint: median survival time, dose: 200.0 mg/kg/injection, schedule: Q04DX005 (sc), vehicle: Klucel (hydroxypropylcellulose) (HPC), evaluated on day 7",140 % of control
same,T/C,"T/C endpoint: median survival time, dose: 200.0 mg/kg/injection, schedule: Q04DX005 (sc), vehicle: Klucel (hydroxypropylcellulose) (HPC), evaluated on day 32",135 % of control
same,T/C,"T/C endpoint: median survival time, dose: 400.0 mg/kg/injection, schedule: Q04DX005 (sc), vehicle: Klucel (hydroxypropylcellulose) (HPC), evaluated on day 7",140 % of control
same,T/C,"T/C endpoint: median survival time, dose: 400.0 mg/kg/injection, schedule: Q04DX005 (sc), vehicle: Klucel (hydroxypropylcellulose) (HPC), evaluated on day 32",135 % of control
same,T/C,"T/C endpoint: median survival time, dose: 800.0 mg/kg/injection, schedule: Q04DX004 (sc), vehicle: water, evaluated on day 7",139 % of control
same,T/C,"T/C endpoint: median survival time, dose: 800.0 mg/kg/injection, schedule: Q04DX004 (sc), vehicle: water, evaluated on day 43",139 % of control
same,T/C,"T/C endpoint: median survival time, dose: 800.0 mg/kg/injection, schedule: Q04DX005 (sc), vehicle: Klucel (hydroxypropylcellulose) (HPC), evaluated on day 7",133 % of control
same,T/C,"T/C endpoint: median survival time, dose: 800.0 mg/kg/injection, schedule: Q04DX005 (sc), vehicle: Klucel (hydroxypropylcellulose) (HPC), evaluated on day 32",130 % of control
same,T/C,"T/C endpoint: median survival time, dose: 1600.0 mg/kg/injection, schedule: Q04DX005 (sc), vehicle: Klucel (hydroxypropylcellulose) (HPC), evaluated on day 7",136 % of control
same,T/C,"T/C endpoint: median survival time, dose: 1600.0 mg/kg/injection, schedule: Q04DX005 (sc), vehicle: Klucel (hydroxypropylcellulose) (HPC), evaluated on day 32",135 % of control
same,T/C,"T/C endpoint: median survival time, dose: 3200.0 mg/kg/injection, schedule: Q04DX005 (sc), vehicle: Klucel (hydroxypropylcellulose) (HPC), evaluated on day 7",136 % of control
same,T/C,"T/C endpoint: median survival time, dose: 3200.0 mg/kg/injection, schedule: Q04DX005 (sc), vehicle: Klucel (hydroxypropylcellulose) (HPC), evaluated on day 32",135 % of control [7 of 8 alive]
Nc1nc(SCc2ccccc2)c2[nH]cnc2n1,T/C,[2],144 % of control
same,T/C,[3],133 % of control
same,T/C,[4],133 % of control
C[n+]1ccc(Nc2ccc(NC(=O)c3ccc(Nc4cc[n+](C)c5ccc(N)cc45)cc3)cc2)cc1,T/C,"T/C endpoint: median survival time, dose: 16.0 mg/kg/injection, schedule: Q01DX009 (ip), vehicle: Klucel (hydroxypropylcellulose) (HPC)",138 % of control [8 of 10 alive]
CCCCSc1ncnc2nc[nH]c12,T/C,"T/C endpoint: median survival time, dose: 64.8 mg/kg/injection, schedule: Q01DX Z (sc), vehicle: methylcellulose (MC)",145 % of control
same,T/C,[4],145 % of control
same,T/C,"T/C endpoint: median survival time, dose: 180.0 mg/kg/injection, schedule: Q01DX Z (sc), vehicle: methylcellulose (MC)",145 % of control
same,T/C,"T/C endpoint: median survival time, dose: 300.0 mg/kg/injection, schedule: Q01DX Z (sc), vehicle: methylcellulose (MC)",136 % of control [9 of 10 alive]
CCOC(=O)C(N)Cc1ccc(N(CCCl)CCCl)cc1 (stereo not drawn),T/C,"T/C endpoint: median survival time, dose: 14.0 mg/kg/injection, schedule: Q01DX Z (sc), vehicle: saline",130 and 138 % of control
Nc1nc(=S)c2ncn(C3OC(COC(=O)c4ccc(Cl)cc4)C(OC(=O)c4ccc(Cl)cc4)C3OC(=O)c3ccc(Cl)cc3)c2[nH]1 (stereo not drawn),T/C,"T/C endpoint: median survival time, dose: 180.0 mg/kg/injection, schedule: Q01DX Z (sc), vehicle: carboxymethylcellulose (CMC)",144 % of control
same,T/C,"T/C endpoint: median survival time, dose: 300.0 mg/kg/injection, schedule: Q01DX Z (sc), vehicle: carboxymethylcellulose (CMC)",144 % of control
same,T/C,"T/C endpoint: median survival time, dose: 500.0 mg/kg/injection, schedule: Q01DX Z (sc), vehicle: carboxymethylcellulose (CMC)",144 % of control
O=NN(CCCl)C(=O)NC1CCCCC1,T/C,"T/C endpoint: median survival time, dose: 4.0 mg/kg/injection, schedule: Q01DX009 (ip), vehicle: other",134 % of control
same,T/C,"T/C endpoint: median survival time, dose: 16.0 mg/kg/injection, schedule: Q01DX009 (ip), vehicle: other",148 % of control
Nc1nc(N)c2nc(CN(CCO)c3ccc(C(=O)NC(CCC(=O)O)C(=O)O)cc3)cnc2n1 (stereo not drawn),T/C,"T/C endpoint: mean survival time, dose: 1.0 mg/kg/injection, schedule: Q01DX009 (ip), vehicle: sodium bicarbonate",145 % of control
same,T/C,"T/C endpoint: mean survival time, dose: 4.0 mg/kg/injection, schedule: Q04DX003 (ip), vehicle: sodium bicarbonate",132 % of control
same,T/C,"T/C endpoint: mean survival time, dose: 16.0 mg/kg/injection, schedule: Q04DX003 (ip), vehicle: sodium bicarbonate",144 % of control
same,T/C,"T/C endpoint: mean survival time, dose: 32.0 mg/kg/injection, schedule: Q04DX003 (ip), vehicle: sodium bicarbonate",148 % of control
same,T/C,"T/C endpoint: mean survival time, dose: 64.0 mg/kg/injection, schedule: Q04DX003 (ip), vehicle: sodium bicarbonate",125 % of control
CCOC1=C(N2CC2)C(=O)C(OCC)=C(N2CC2)C1=O,T/C,"T/C endpoint: median survival time, dose: 5.0 mg/kg/injection, schedule: Q01DX Z (sc), vehicle: carboxymethylcellulose (CMC)",136 % of control
same,T/C,"T/C endpoint: median survival time, dose: 8.4 mg/kg/injection, schedule: Q01DX Z (sc), vehicle: carboxymethylcellulose (CMC)",127 % of control
